About 770 (0.35%) of roughly 220,000 compounds were called active. The shares of active, inactive and inconclusive entries below differ from those in the screen. Cut-off read from the data, not from the text of the source: active = binding response below about 49% or above about 150%; inconclusive = no clear call, values can overlap the other calls; inactive = in between.
The compounds below were run against Guanine nucleotide-binding protein G(o) subunit alpha (Homo sapiens) (UniProt P09471) (assay: RGS7-Galphao binding modulators, primary screen, biochemical, multiplexed bead flow cytometry (AID 1439;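 note: fluorescent Galphao held in activated GDP-AlF4 state binding bead-coupled RGS7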)). Settings: at 10 µM, actives lie on both sides.

Protein sequences, listed by entry. Tags and fused reporters are not part of them.
UniProt P09471, whole entry, looked up: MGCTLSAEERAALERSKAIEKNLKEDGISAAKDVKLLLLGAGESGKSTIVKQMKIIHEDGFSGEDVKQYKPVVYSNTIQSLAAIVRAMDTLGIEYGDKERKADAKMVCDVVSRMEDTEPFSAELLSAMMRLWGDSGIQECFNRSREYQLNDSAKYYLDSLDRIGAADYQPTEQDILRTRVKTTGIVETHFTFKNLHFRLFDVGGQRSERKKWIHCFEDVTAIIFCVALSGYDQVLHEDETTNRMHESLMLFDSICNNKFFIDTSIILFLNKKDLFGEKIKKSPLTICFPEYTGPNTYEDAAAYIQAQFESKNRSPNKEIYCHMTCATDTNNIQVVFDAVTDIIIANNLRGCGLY

Q: `C=C1CCN([C@H](C(=O)OCc2ccc(C)cc2)C(C)C)S(=O)(=O)c2ccccc21` was tested. Which binding response (% of control) did it give?
A: inconclusive: 127%

Q: How did the binding response (% of control) turn out when `O=S(=O)(Nc1ncccn1)c1ccc(NS(=O)(=O)c2cccc(Cl)c2Cl)cc1` was run?
A: inconclusive: 103%

Q: How did the binding response (% of control) turn out when `CC(NC(=O)Nc1ccc(Br)cc1)C(C)(C)C` (configuration not stated) was run?
A: inconclusive: 108%

Q: With `COc1ccc(C(CCN)Cc2ccccc2)cc1` (configuration not stated) as the compound, how does the binding response (% of control) read?
A: inconclusive: 86.3%

Q: How did the binding response (% of control) turn out when `CC(C)(C(N)=O)c1ccccc1` was run?
A: inconclusive: 151%

Q: With `CCOC(=O)c1ccccc1NC(=S)N1CCN(C2CCCCC2)CC1` as the compound, how does the binding response (% of control) read?
A: inconclusive: 91%

Q: With `Cc1cc(O)c(NC(=O)c2cccc([N+](=O)[O-])c2)cc1C` as the compound, how does the binding response (% of control) read?
A: inconclusive: 119%

Q: With `Cc1[nH]c2ccccc2c1C(=O)COC(=O)c1ccc[n+]([O-])c1` as the compound, how does the binding response (% of control) read?
A: inconclusive: 65.9%

Q: How did the binding response (% of control) turn out when `FC(F)(F)c1ccc(C2[C@H]3CN(Cc4cccnc4)[C@H](c4ccccc4)C34CC2(c2ccccc2)C4)cc1` (some centres not stated) was run?
A: inconclusive: 115%

Q: How did the binding response (% of control) turn out when `CC(C)Cn1c(-c2csc(C(C)C)c2)n[nH]c1=S` was run?
A: inconclusive: 110%

Q: With `COc1cc(OC)cc(C(=O)N[C@H](C(=O)Nc2nc3ccc(S(C)(=O)=O)cc3s2)C(C)C)c1` as the compound, how does the binding response (% of control) read?
A: inconclusive: 87.3%

Q: `CCOC(=O)C(C)Sc1nc(-c2ccccn2)ncc1OC` (configuration not stated) was tested. Which binding response (% of control) did it give?
A: inconclusive: 91.7%

Q: `CCOc1ccc(C(=O)c2cnc3ccccc3c2N2CCN(CC)CC2)cc1` was tested. Which binding response (% of control) did it give?
A: inconclusive: 87.6%

Q: With `Cc1ccc(OCC(=O)Nc2cnn(CCCC(=O)O)c2)c([N+](=O)[O-])c1` as the compound, how does the binding response (% of control) read?
A: inactive: 101%

Q: `CCCCCn1c(=O)c(C(=O)OCC)c(Cl)c2ccccc21` was tested. Which binding response (% of control) did it give?
A: inconclusive: 95.9%

Q: Which binding response (% of control) does the source give for `Cc1ccc(-c2cc3ncc(C#N)c(N)n3n2)cc1` here?
A: inconclusive: 92.3%

Q: For `Cc1ccc2cc(C3CC(c4cccs4)=NN3S(C)(=O)=O)c(Cl)nc2c1` (configuration not stated), which binding response (% of control) is on record?
A: inconclusive: 18.3%

Q: Which binding response (% of control) does the source give for `COc1ccnc(Oc2ccccc2)c1C(=O)N/C=N/OCc1ccccc1F` here?
A: inactive: 94.1%

Q: Which binding response (% of control) does the source give for `Cn1c(-c2ccccc2)c(C(=O)CC#N)c2ccccc21` here?
A: inconclusive: 71.9%

Q: How did the binding response (% of control) turn out when `COc1ccccc1NC(=S)N1CCNC(=O)C1CC(=O)Nc1cccc(C)c1` (configuration not stated) was run?
A: inconclusive: 138%

Q: How did the binding response (% of control) turn out when `O=C(COc1cccc2cccnc12)N/N=C1\SCC(=O)N1Cc1ccco1` was run?
A: inactive: 95.7%

Q: `CCNC(=O)CSc1nnc(CN2CCCCCC2=O)n1-c1ccccn1` was tested. Which binding response (% of control) did it give?
A: inactive: 103%

Q: `O=C1c2cccc3cc([N+](=O)[O-])cc(c23)C(=O)N1CC1CCCO1` (configuration not stated) was tested. Which binding response (% of control) did it give?
A: inconclusive: 107%

Q: How did the binding response (% of control) turn out when `CCc1cc2c(=O)c(-c3cnn(-c4ccccc4)c3)c(C)oc2cc1OCC(=O)Nc1ccc(F)c(F)c1` was run?
A: inactive: 106%

Q: Which binding response (% of control) does the source give for `CCN(CC)CC(=O)N1c2ccccc2CCc2ccc(NC(=O)c3cc(OC)c(OC)c(OC)c3)cc21` here?
A: inconclusive: 82.5%

Q: With `c1ccc(SCc2cn3cccnc3n2)nc1` as the compound, how does the binding response (% of control) read?
A: inconclusive: 85.8%

Q: Which binding response (% of control) does the source give for `CC(=O)c1c(C(=O)O)c2ccccc2[nH]c1=O` here?
A: inconclusive: 95.5%

Q: With `O=C(NCC1CCCO1)c1ccc(S(=O)(=O)N2CCC(c3nc4ccc(Cl)cc4[nH]3)CC2)cc1` (configuration not stated) as the compound, how does the binding response (% of control) read?
A: inactive: 102%

Q: For `O=C(COC(=O)CSc1nnc(-c2ccc(Cl)cc2)o1)Nc1cc(Cl)ccc1Cl`, which binding response (% of control) is on record?
A: inconclusive: 108%

Q: `O=[N+]([O-])c1ccc(-c2n(-c3ccccn3)c3ccccc3[n+]2-c2ccccn2)cc1` was tested. Which binding response (% of control) did it give?
A: inconclusive: 101%

Q: Which binding response (% of control) does the source give for `O=C(Nc1ccc(F)cc1F)N1CCN(CCc2ccccc2)CC1` here?
A: inconclusive: 98.2%

Q: With `Cc1[nH]c2ccccc2c1C(=O)CSc1cccc[n+]1[O-]` as the compound, how does the binding response (% of control) read?
A: inconclusive: 178%

Q: With `CCc1ccc(-c2cn3nc(-c4ccccc4)cnc3n2)cc1` as the compound, how does the binding response (% of control) read?
A: inconclusive: 49.8%

Q: Which binding response (% of control) does the source give for `Cc1cc(C)nc(SCc2ccc(C(=O)N/N=C/c3ccco3)cc2)n1` here?
A: inactive: 100%

Q: How did the binding response (% of control) turn out when `CCn1nc(C(=O)OCC(=O)N2CC(=O)Nc3ccccc32)c2ccccc2c1=O` was run?
A: inconclusive: 90.9%

Q: `CC(C)(C)NC(=O)COC(=O)c1ccccc1Oc1ccccc1` was tested. Which binding response (% of control) did it give?
A: inconclusive: 101%

Q: Which binding response (% of control) does the source give for `NC(=O)CC(NC(=O)c1cccc(Br)c1)c1ccc(N2CCC(N3CCCC3)CC2)c([N+](=O)[O-])c1` (configuration not stated) here?
A: inconclusive: 67.4%

Q: How did the binding response (% of control) turn out when `CCOc1cc(/C=C2\N=C3CCCCCN3C2=O)ccc1O` was run?
A: inconclusive: 103%

Q: For `Oc1c(Br)cc(Br)cc1/C=N/N1CCN(Cc2ccccc2)CC1`, which binding response (% of control) is on record?
A: active: 172% [activator]

Q: How did the binding response (% of control) turn out when `COc1ccc(-c2c(C(F)(F)F)nn(C)c2NC(=O)CSCC(=O)O)cc1` was run?
A: inconclusive: 82.6%

Q: How did the binding response (% of control) turn out when `O=C1NC(Cc2c[nH]c3ccccc23)C(=O)N1Cc1ccc(CN2C(=O)NC(Cc3c[nH]c4ccccc34)C2=O)cc1` (configuration not stated) was run?
A: inactive: 105%

Q: How did the binding response (% of control) turn out when `COc1ccc(NC(=S)NNC(=O)Cn2nc(C(F)F)cc2C(F)F)cc1` was run?
A: inactive: 104%

Q: With `Cc1noc(C)c1COc1cccc(C(=O)NC(C)(C)C)c1` as the compound, how does the binding response (% of control) read?
A: inconclusive: 101%

Q: Which binding response (% of control) does the source give for `N#CCCN1CCCc2cc(N=Nc3ccc(C(F)(F)F)cc3)ccc21` here?
A: inconclusive: -155%

Q: With `COc1ccc(OC)c(NC(=O)N[C@H](Cc2ccccc2)C(=O)NN)c1` as the compound, how does the binding response (% of control) read?
A: inconclusive: 13.4%

Q: Which binding response (% of control) does the source give for `O=C(Nc1ccc(C2SCCS2)cc1)c1ccccc1` here?
A: inconclusive: 72.7%

Q: `Nc1ccc(C(=O)O)cc1S(=O)(=O)O` was tested. Which binding response (% of control) did it give?
A: inconclusive: 78.3%

Q: With `COC(=O)c1ccc(Nc2cc(C)nc3ccc(C)cc23)cc1` as the compound, how does the binding response (% of control) read?
A: inconclusive: 65.4%

Q: For `CCN1CCN(c2nc(N(C)c3ccccc3)nc(N)c2[N+](=O)[O-])CC1`, which binding response (% of control) is on record?
A: inconclusive: 133%

Q: With `CC(=O)Nc1ccc(-c2nn[nH]n2)cc1` as the compound, how does the binding response (% of control) read?
A: inconclusive: 63.7%

Q: With `S=c1[nH]nc(-c2cccnc2)n1/N=C/c1ccccc1` as the compound, how does the binding response (% of control) read?
A: inconclusive: 104%

Q: For `C/C=C/C(=O)Nc1ccc(N2CCN(c3ccc(C(F)(F)F)cn3)CC2)nc1`, which binding response (% of control) is on record?
A: inconclusive: 105%

Q: For `CSc1nc2c(cc1C#N)CCC2`, which binding response (% of control) is on record?
A: inconclusive: 70.5%

Q: How did the binding response (% of control) turn out when `COc1ccc(-n2c(C)cc(-c3csc(N)n3)c2C)cc1` was run?
A: active: -0.65%

Q: For `N#CC1=C(N)Oc2c(oc(CO)cc2=O)C1c1ccccc1[N+](=O)[O-]` (configuration not stated), which binding response (% of control) is on record?
A: inconclusive: 69.4%

Q: `COc1cccc2c1c(NC(=O)c1cc(C)on1)nn2C` was tested. Which binding response (% of control) did it give?
A: inconclusive: 111%

Q: How did the binding response (% of control) turn out when `CCOc1ccc2oc(C(=O)O)c(C)c2c1` was run?
A: inconclusive: 49.7%

Reference: PubChem BioAssay AID1439 (NMMLSC, 2008)
